# Measurements as given in the supplement of paper PMC4604168 (melanoma cell lines).
# This is one part of the list. Single values are uncertain, as repeats are few or missing.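 Cells were imaged in 1,536-well plates, and nuclei stained with an antibody against cleaved PARP were counted against all DNA-stained nuclei to give the apoptosis fraction. Screening doses were chosen to leave most cells alive, and resting and induced cleaved-PARP levels differ strongly between cell lines.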
# Legend:
# Assay in all cases: cleaved PARP positive nuclei fraction relative to DMSO control; melanoma cells; higher = more apoptosis
# Conditions in all cases: library dose: low library concentration; 72 h
# [1] = system: MZ2-MEL
# [2] = system: MeWo
# [3] = system: RPMI7951
# [4] = system: RVH-421
# [5] = system: SkMel28
# [6] = system: SkMel2
# [7] = system: SkMel30
# [8] = system: SkMel5
# [9] = system: UACC257
# [10] = system: UACC62
SMILES,cleaved PARP positive nuclei fraction [1] [%],cleaved PARP positive nuclei fraction [2] [%],cleaved PARP positive nuclei fraction [3] [%],cleaved PARP positive nuclei fraction [4] [%],cleaved PARP positive nuclei fraction [5] [%],cleaved PARP positive nuclei fraction [6] [%],cleaved PARP positive nuclei fraction [7] [%],cleaved PARP positive nuclei fraction [8] [%],cleaved PARP positive nuclei fraction [9] [%],cleaved PARP positive nuclei fraction [10] [%]
"Cn1sc(=O)n(Cc2ccccc2)c1=O + Cn1cc(/C=C2\C(=O)Nc3cccnc32)c2ccccc21 [GW441756] (first compound 0.4 µM, partner dose 0.4 µM)",70.7,60.3,86.1,53.8,133,38.3,93.6,108,246,135
"C[C@]1(O)C[C@@H](c2nc(-c3ccc4ccc(-c5ccccc5)nc4c3)c3c(N)nccn32)C1 + OCCn1cc(-c2cnc3nnn(Cc4ccc5ncccc5c4)c3n2)cn1 [PF04217903] (first compound 0.4 µM, partner dose 1 µM)",133,45,131,33.6,121,85.4,85.3,36.6,39.2,193
"Cn1sc(=O)n(Cc2ccccc2)c1=O + N#Cc1c(O)c2c(-c3ccc(-c4ccccc4O)cc3)csc2[nH]c1=O [A769662] (first compound 0.4 µM, partner dose 2 µM)",142,82.4,128,76.8,94,167,52.1,155,326,137
"Cn1cnc2c(F)c(Nc3ccc(Br)cc3Cl)c(C(=O)NOCCO)cc21 [selumetinib] + CO[C@@H]1[C@H](N(C)C(=O)c2ccccc2)C[C@H]2O[C@]1(C)n1c3ccccc3c3c4c(c5c6ccccc6n2c5c31)C(=O)NC4 [Midostaurin] (first compound 0.015 µM, partner dose 0.08 µM)",319,268,184,170,20.8,120,41.5,37.7,110,184
"COc1ccc(C2=N[C@@H](c3ccc(Cl)cc3)[C@@H](c3ccc(Cl)cc3)N2C(=O)N2CCNC(=O)C2)c(OC(C)C)c1 [Nutlin-3] + COc1ccc2c(c1)CCC1C2CCC2(C)C(NCCCCCCN3C(=O)C=CC3=O)CCC12 [U73122] (first compound 0.1 µM, partner dose 0.4 µM)",229,82.6,105,82.9,226,110,89.7,83.4,215,61
"CCN(CC)CCNC(=O)c1c(C)[nH]c(/C=C2\C(=O)Nc3ccc(F)cc32)c1C [sunitinib] + N#Cc1c(O)c2c(-c3ccc(-c4ccccc4O)cc3)csc2[nH]c1=O [A769662] (first compound 0.4 µM, partner dose 2 µM)",167,222,107,52.7,56,123,99.2,79.3,139,122
"C[C@@H](N)c1ccc(C(=O)Nc2ccnc3[nH]ccc23)cc1 + COc1cc2ncnc(Nc3ccc(Oc4ccccc4)cc3)c2cc1OC [SrcI1] (first compound 0.4 µM, partner dose 2 µM)",201,249,127,142,305,71.8,74.6,167,38.1,322
"CCN(CC)CCNC(=O)c1c(C)[nH]c(/C=C2\C(=O)Nc3ccc(F)cc32)c1C [sunitinib] + Cn1cncc1[C@@](N)(c1ccc(Cl)cc1)c1ccc2c(c1)c(-c1cccc(Cl)c1)cc(=O)n2C [tipifarnib] (first compound 0.4 µM, partner dose 0.01 µM)",50.8,105,102,105,65.5,145,70.6,31.2,124,158
"CS(=O)(=O)c1ccc(C(=O)Nc2ccc(Cl)c(-c3ccccn3)c2)c(Cl)c1 [vismodegib] + Cc1cc(N2CCOCC2)cc2[nH]c(-c3c(NC[C@@H](O)c4cccc(Cl)c4)cc[nH]c3=O)nc12 [BMS536924] (first compound 1 µM, partner dose 0.2 µM)",84,110,49.1,91.3,59.1,115,90.9,69.5,73.6,158
"CC(=O)O[C@@]12CO[C@@H]1C[C@H](O)[C@@]1(C)C(=O)[C@H](O)C3=C(C)[C@@H](OC(=O)[C@H](O)[C@@H](NC(=O)OC(C)(C)C)c4ccccc4)C[C@@](O)([C@@H](OC(=O)c4ccccc4)[C@H]21)C3(C)C [Docetaxel] + CCN(CC)CCCCNc1ncc2cc(-c3cc(OC)cc(OC)c3)c(NC(=O)NC(C)(C)C)nc2n1 [PD173074] (first compound 0.0001 µM, partner dose 0.1 µM)",692,473,206,30.8,899,466,150,670,192,117
"C[C@]1(O)C[C@@H](c2nc(-c3ccc4ccc(-c5ccccc5)nc4c3)c3c(N)nccn32)C1 + CN(NC(=O)CC(=O)NN(C)C(=S)c1ccccc1)C(=S)c1ccccc1 [STA4783] (first compound 0.4 µM, partner dose 0.006 µM)",133,154,132,61.4,333,139,68.1,691,241,282
"Cn1cnc2c(F)c(Nc3ccc(Br)cc3Cl)c(C(=O)NOCCO)cc21 [selumetinib] + COc1cc2c(Oc3ccc4[nH]c(C)cc4c3F)ncnc2cc1OCCCN1CCCC1 [cediranib] (first compound 0.015 µM, partner dose 0.4 µM)",146,103,94.9,416,123,136,79,61.4,56,126
"CCN(CC)CCNC(=O)c1c(C)[nH]c(/C=C2\C(=O)Nc3ccc(F)cc32)c1C [sunitinib] + CN(C)S(=O)(=O)c1ccc2c(c1)/C(=C/c1cc3c([nH]1)CCCC3)C(=O)N2 [SU6656] (first compound 0.4 µM, partner dose 0.4 µM)",112,88.9,127,256,86.4,66.9,71.4,94.8,85.5,71.9
"CN(c1ncccc1CNc1nc(Nc2ccc3c(c2)CC(=O)N3)ncc1C(F)(F)F)S(C)(=O)=O + O=C(Nc1cccc(Cl)c1)Nc1ncc(CCNc2ncnc3ccsc23)s1 [SNS314] (first compound 0.08 µM, partner dose 0.0008 µM)",107,133,242,77.1,107,154,65.2,122,101,99.2
"Cn1sc(=O)n(Cc2ccccc2)c1=O + c1cc(-c2cnn3cc(-c4ccc(OCCN5CCCCC5)cc4)cnc23)ccn1 [Dorsomorphin] (first compound 0.4 µM, partner dose 0.4 µM)",60,38.8,43.9,112,283,38.9,61.8,73.5,62.1,116
"C[C@]1(O)C[C@@H](c2nc(-c3ccc4ccc(-c5ccccc5)nc4c3)c3c(N)nccn32)C1 + COc1ccc2c(c1)CCC1C2CCC2(C)C(NCCCCCCN3C(=O)C=CC3=O)CCC12 [U73122] (first compound 0.4 µM, partner dose 0.4 µM)",185,45.1,98.4,181,206,89.7,44,170,146,1200
"CCN(CC)CCNC(=O)c1c(C)[nH]c(/C=C2\C(=O)Nc3ccc(F)cc32)c1C [sunitinib] + Cc1ccc(NC(=O)c2cccc(N(C)C)c2)cc1NC(=O)c1ccc(O)cc1 [ZM336372] (first compound 0.4 µM, partner dose 2 µM)",69.3,105,122,69.7,74.4,86.4,84.9,122,51,74
"CCCCCCCCc1ccc(CCC(N)(CO)CO)cc1 [fingolimod] + COC(=O)c1sccc1S(=O)(=O)Nc1ccc(Nc2ccccc2)cc1OC [GSK0660] (first compound 2 µM, partner dose 1 µM)",75.3,97.7,185,163,122,57.8,29.7,73.2,104,267
"CCCCCCCCc1ccc(CCC(N)(CO)CO)cc1 [fingolimod] + CCc1ccc(CCOc2ccc(CC3SC(=O)NC3=O)cc2)nc1 [pioglitazone] (first compound 2 µM, partner dose 2 µM)",96.2,205,69.4,119,116,85.8,80.4,279,212,377
"NC1(c2ccc(-c3nc4ccn5c(=O)[nH]nc5c4cc3-c3ccccc3)cc2)CCC1 + CCN(CC)CCCCNc1ncc2cc(-c3cc(OC)cc(OC)c3)c(NC(=O)NC(C)(C)C)nc2n1 [PD173074] (first compound 0.4 µM, partner dose 0.1 µM)",131,180,136,84.9,297,53.4,97.5,82.8,411,197

# Exported as tab-separated lines: part of the list above.
SMILES	cleaved PARP positive nuclei fraction [1] [%]	cleaved PARP positive nuclei fraction [2] [%]	cleaved PARP positive nuclei fraction [3] [%]	cleaved PARP positive nuclei fraction [4] [%]	cleaved PARP positive nuclei fraction [5] [%]	cleaved PARP positive nuclei fraction [6] [%]	cleaved PARP positive nuclei fraction [7] [%]	cleaved PARP positive nuclei fraction [8] [%]	cleaved PARP positive nuclei fraction [9] [%]	cleaved PARP positive nuclei fraction [10] [%]
CS(=O)(=O)c1ccc(C(=O)Nc2ccc(Cl)c(-c3ccccn3)c2)c(Cl)c1 [vismodegib] + Cc1cc(N2CCOCC2)cc2[nH]c(-c3c(NC[C@@H](O)c4cccc(Cl)c4)cc[nH]c3=O)nc12 [BMS536924] (first compound 1 µM, partner dose 0.2 µM)	84	110	49.1	91.3	59.1	115	90.9	69.5	73.6	158
CCCCCCCCc1ccc(CCC(N)(CO)CO)cc1 [fingolimod] + CCc1ccc(CCOc2ccc(CC3SC(=O)NC3=O)cc2)nc1 [pioglitazone] (first compound 2 µM, partner dose 2 µM)	96.2	205	69.4	119	116	85.8	80.4	279	212	377
